Experimental data reported in paper PMC5608759.
No constants are given. Whether binding was seen depends on the method and setting. Binding seen in cells or lysates may run through a third protein. A yes stands for co-enrichment or nearness to the bait. Other partners may have been found.

Protein sequences, listed by entry. Tags and fused reporters are not part of them.
UniProt P04150: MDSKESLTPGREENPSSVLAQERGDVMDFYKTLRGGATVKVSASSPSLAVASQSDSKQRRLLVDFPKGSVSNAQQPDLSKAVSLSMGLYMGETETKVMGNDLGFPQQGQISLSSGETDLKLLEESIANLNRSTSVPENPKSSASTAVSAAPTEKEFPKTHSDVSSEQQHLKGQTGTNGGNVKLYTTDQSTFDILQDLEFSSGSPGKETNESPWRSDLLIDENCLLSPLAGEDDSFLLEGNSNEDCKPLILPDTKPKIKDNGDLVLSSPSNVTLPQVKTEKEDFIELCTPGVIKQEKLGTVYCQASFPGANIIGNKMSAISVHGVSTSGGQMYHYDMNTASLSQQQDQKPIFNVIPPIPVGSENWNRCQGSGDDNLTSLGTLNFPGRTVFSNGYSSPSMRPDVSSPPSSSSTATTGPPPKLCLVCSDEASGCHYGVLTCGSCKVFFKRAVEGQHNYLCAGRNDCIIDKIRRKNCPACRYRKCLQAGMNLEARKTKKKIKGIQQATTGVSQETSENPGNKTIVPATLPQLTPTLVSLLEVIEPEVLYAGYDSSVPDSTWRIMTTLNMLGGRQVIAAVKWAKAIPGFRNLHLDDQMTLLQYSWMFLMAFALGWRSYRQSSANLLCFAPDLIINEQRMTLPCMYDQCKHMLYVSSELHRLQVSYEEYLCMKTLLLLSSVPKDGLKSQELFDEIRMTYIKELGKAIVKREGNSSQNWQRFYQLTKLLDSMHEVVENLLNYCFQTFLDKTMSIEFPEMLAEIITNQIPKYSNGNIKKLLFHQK

B1: 19 S proteasome regulatory subunit Rpt3 (protein, UniProt O74894 1-389)
chain: MNSTEEIDLYNRWKALERQLEMLDLQEGFIKEDCKSLKRELIRAQEEVKRIQSVPLVIGQFLEAIDQNTAIVGSTTGSNYVVRILSTLDRELLKPSASVALQRHSNALVDILPPEADSSISMLRPDERPDVSYADVGGLDVQKQEVREAVELPLTQGDLYRQIGIDPPRGVLLYGPPGTGKTMLVKAVANSTAANFIRVVGSEFVQKYLGEGPRMVRDVFRMARENAPAIIFIDEIDAIATKRFDAQTGADREVQRILIELLTQMDGFDQGANVKVIMATNRADTLDPALLRPGRLDRKIEFPSYRDRRQRRLVFQTITAKMLLSPEVDLDTFIMRPDASSGAQIAAIMQDAGLLAVRKSRGVILQSDIEEAYARAVKPTDMEQFAFYK
B2: 19 S proteasome regulatory subunit Mts4 (protein, UniProt P87048 1-891)
chain: MSSKDISSKSPSGNDALNDKKGTKTSETNDRNSTNNTKERDELEDLSEEDLQLKNDLELLVQAVQDATPELVGSSLTQLKEIIRTSTSSMTAVPKPLKFLRPHYFTLVKIYDSWPQSPQKTQLADILSVLGMSYSNTSKHESLKYRLQGVTTDPSLWGHEYVRHLASEIEEEFASRQEEEAPTDDLMELALTIVPFFLTHNAEADAIDLLQELGAIEKVVPFVELDNASRVCLYITSCVNLLPFPEDVAMLRTAHAIYRKFDQLTQALNVAIRLDDMSLIKEDCEAATDPLLKKQMSYMLARQQIPMDMGDEELNDALNNTHLSDHFHYLGKELNLMDPKVPEDIFKTHLEVARTGLGASGVYSAKQNLANTFVNALVNAGYSNDRLILVDDEKTSWIYKNKESGLISATASIGLLQLWNVDMGLSLLDKYLYSSEENTKAGALLGIGVTNVAVRNEADPAMAILSEYLETGSVKLRASAILGLGLAYSGANREDLLDMLSPIVTDTDCPMQLSCLAALSLGLIFVGTCNGDVASTILQTLMEREESAQNDQWGRFMALGLALLFNGKQDLADATVETLKAIEGKIARQAEILVDICSYAGTGNVLHIQKLLHICSEPPSDDAKESETTIQTFAALGVATIAMGEDIGAEMVLRHFDHMMHYGEPSIRKAIPLALGLLSASNPQMRIFDTLSRYSHDNDLDVAYNAIFAMGLVGAGTSNARLAQLLRQLASYYHKESNALFMVRIAQGLLYLGKGTMTLNPYHTERQILGQTAFAGLMTVVLAMLDANTFVLDTSHWLLYAITLAIRPRMLITLGEDGQYLPVSVRVGQAVDVVGQAGRPKVITGWVTHTTPVLLHHNERAELATEAYTPLTSLEGIVILKKNTEDIEMTA
B3: acidic ribosomal protein Rpp0 (protein, UniProt O74864 1-312)
chain: MAISKESKAQYFEKLRSLFEKYNSLFVVNIDNVSSQQMHTVRKQLRGTAELIMGKNTMIRRAMRGIINDMPELERLLPVVRGNVGFVFTNADLKEVRETIIANVIAAPARPNAIAPLDVFVPAGNTGMEPGKTSFFQALGIPTKITRGTIEITSDVHLVSKDAKVGPSEATLLNMLNISPFTYGMDVLTIYDQGNVFSPEILDVSEEDLIGHLLSAASIITAISLGANYPTILSVMHSVVNAYKNLVAVSLATEYTFEGTEQTKAFLADPSAFVVAAAPAAAAGGEAEAPAAEAAAEEEEESDEDMGFGLFD
B4: RNA polymerase I upstream activation factor complex subunit Spp27 (protein, UniProt O74503 1-233)
chain: MEEYETDIKQILGTVDRQTVSAKQVRQLLEERRKVDLSAHKKDLNALILKCFDETAAPSEKESLEKQAPARKTKGKRATENGTEEGKKPAKRTRKRKEDGEEGGKRKRNQDPANNPLNKPMKLSPKLAEFLGLEQLSRPQTVKKLWEYIKAHDLQDPNDKRTILCDDKLKSVFEVDTLHMFTMNKYLTNLMTKIPDDQLPKPQPKNEEPAAPNDLPKQEEKELVEPPTAESTA
B5: thioredoxin peroxidase Tpx1 (protein, UniProt O74887 1-192)
chain: MSLQIGKPAPDFKGTAVVNGAFEEIKLADYKGKWVFLGFYPLDFTFVCPTEIVAFSEAASKFAERNAQVILTSTDSEYSHLAFINTPRKEGGLGGINIPLLADPSHKVSRDYGVLIEDAGVAFRGLFLIDPKGVLRQITINDLPVGRSVDEALRLLDAFQFVEEHGEVCPANWHKGSDTIDTKNPEKYFSKH
B6: pas1 (protein, UniProt P87049 1-411)
chain: MSKVNMRALLESFSTVILSIYPLAKSTNQQSHSHSLSLTQFLYETIRRSRVDYTTLLLALYYFIRFRDAASSKPTNYIPLLCGRRLFLVCLMAATKFLQDRSFSNRAWSRLSGLPVDKLLVLEYMFYQCIDYRLVVPKHIFARWSLLVGECCAHATARYDSTDPNVASFGSVAQYWVSLFSNVQSSLDDLFSIACLTKIAHRRMNANAALKNQATRKPSSSPQTTQDSSPILTMAPSTPVSVGSTPPSTPSVLPIAKQLAPMNVCKAHIQASNQSRTLTTASPPEQIPLMEPQVYVNPQVLPGRLSSLSKPVSLPPTPSSPKVGVYRPMTSKSNGGVAYCYNAQKLNNATGPVTFNMPFASVLPLAVSVSCDLGTASAYVASLPQPCSQKRHLEEDYSCLTEHSAKRRSYF
B7: Hsp104 heat shock protein (protein, UniProt O94641 1-905)
chain: MADYPFTDKAAKTLSDAYSIAQSYGHSQLTPIHIAAALLSDSDSNGTTLLRTIVDKAGGDGQKFERSVTSRLVRLPAQDPPPEQVTLSPESAKLLRNAHELQKTQKDSYIAQDHFIAVFTKDDTLKSLLAEAGVTPKAFEFAVNNVRGNKRIDSKNAEEGFDALNKFTVDLTELARNGQLDPVIGREDEIRRTIRVLSRRTKNNPVLIGEPGVGKTSIAEGLARRIIDDDVPANLSNCKLLSLDVGSLVAGSKFRGEFEERIKSVLKEVEESETPIILFVDEMHLLMGAGSGGEGGMDAANLLKPMLARGKLHCIGATTLAEYKKYIEKDAAFERRFQIILVKEPSIEDTISILRGLKEKYEVHHGVTISDRALVTAAHLASRYLTSRRLPDSAIDLVDEAAAAVRVTRESQPEVLDNLERKLRQLRVEIRALEREKDEASKERLKAARKEAEQVEEETRPIREKYELEKSRGSELQDAKRRLDELKAKAEDAERRNDFTLAADLKYYGIPDLQKRIEYLEQQKRKADAEAIANAQPGSEPLLIDVVGPDQINEIVARWTGIPVTRLKTTEKERLLNMEKVLSKQVIGQNEAVTAVANAIRLSRAGLSDPNQPIASFLFCGPSGTGKTLLTKALASFMFDDENAMIRIDMSEYMEKHSVSRLIGAPPGYVGHEAGGQLTEQLRRRPYSVILFDEIEKAAPEVLTVLLQVLDDGRITSGQGQVVDAKNAVIIMTSNLGAEYLTTDNESDDGKIDSTTREMVMNSIRGFFRPEFLNRISSIVIFNRLRRVDIRNIVENRILEVQKRLQSNHRSIKIEVSDEAKDLLGSAGYSPAYGARPLNRVIQNQVLNPMAVLILNGQLRDKETAHVVVQNGKIFVKPNHEANANGSADIDMDGIDDDVNDEELE
B8: leu1 (protein, UniProt P18869 1-371)
chain: MCAKKIVVLPGDHIGPEIVASALEVLKVVEKKRPELKLEFEEHKIGGASIDAYGTPLTDETVKACLEADGVLLGAVGGPEWTNPNCRPEQGLLKLRKSMGVWANLRPCNFASKSLVKYSPLKPEIVEGVDFCVVRELTGGCYFGERTEDNGSGYAMDTWPYSLEEVSRIARLAAWLAETSNPPAPVTLLDKANVLATSRLWRKTVAKIFKEEYPHLTLKNQLIDSAAMLLVKSPRTLNGVVLTDNLFGDIISDEASVIPGSLGLLPSASLSGVVGKSEEKVHCLVEPIHGSAPDIAGKGIVNPVGTILSASLLLRYGLNAPKEAEAIEAAVRKVLDDTSIGGRGLYTRDLGGEASTADITKAVVEELEKIL
B9: rpl2401 (protein, UniProt Q92354 1-149)
chain: MKVEVCSFSGSKVYPGAGRLFVRGDNKVFRFVNKKSESLFLQRKNPRRLSWTVLYRRMHKKGISEEHAKKRTRRTVKHQRGIVGANLDVIKEKRNQRPEVRAAARAAALKQRKDKKAASESEKKAIKAKSAASSARGQAIKNAKAAARH
B10: rpl2801 (protein, UniProt P57728 1-148)
chain: MPTHTSKTRKLRGHVSAGHGRIGKHRKHPGGRGKAGGLQHLRSHFDKYHPGYFGKVGMRRFHLMKNPLWRPTVNLDRLWTLVPNETREKYLGKNTEVAPVINVLQSGYGKVLGKGRLPDTPVIIQTRYVSRRAEEKIKQAGGVVELIA

Molecular target: human glucocorticoid receptor alpha (GRα), expressed in S. pombe (human) (UniProt P04150)
Experiment: affinity purification with mass spectrometry; anti-GR antibody on epoxy-activated magnetic beads; lysates of S. pombe expressing hGRα (empty vector as control) grown at 30 °C or 39 °C (heat shock 30 min); lysis buffer 250 mM NaCl, 20 mM Tris pH 7.5, 1% Triton X-100, 100 mM potassium acetate; 4 °C, 1 hour, 6 washes; SDS-PAGE and LC-MS/MS

Row | Binder | binding
1 | B1 | binds
2 | B2 | binds
3 | B3 | binds
4 | B4 | binds
5 | B5 | binds
6 | B6 | binds
7 | B7 | binds
8 | B8 | binds
9 | B9 | binds
10 | B10 | binds
